Assay results as given in paper PMC2776992.
These are yes or no findings as the source states them, for the method shown. In cells and extracts the contact can be indirect. Binding calls can cover weak binding; strength is not graded here. For some assays here: Sequences can lack the tags named with a protein.

Key:
[1] = target: protein phosphatase 1 (PP1), mouse (mouse (endogenous in mouse β-cell lines and islets)); test: pull-down; microcystin capture assay: mitochondria of control, βIRKO or βIRKO+hIRB mouse β-cell lines, or of control or βIRKO mouse islets, solubilised in 6 mM CHAPS, 150 mM NaCl, 0.01 M sodium phosphate pH 7.2, 2 mM EDTA; incubated with microcystin beads (hold PP1) overnight at 4°C; bound proteins detected by Western blotting
[2] = target: protein phosphatase 1 (PP1), human (human (endogenous in human islets)); test: pull-down; microcystin capture assay: mitochondria of human islets (controls and patients with type 2 diabetes) solubilised in 6 mM CHAPS, 150 mM NaCl, 0.01 M sodium phosphate pH 7.2, 2 mM EDTA; incubated with microcystin beads (hold PP1) overnight at 4°C; bound proteins detected by Western …

B1: WAVE1 (a protein kinase A scaffold protein), mouse (protein, UniProt Q8R5H6 1-559)
chain: MPLVKRNIDPRHLCHTALPRGIKNELECVTNISLANIIRQLSSLSKYAEDIFGELFNEAHSFSFRVNSLQERVDRLSVSVTQLDPKEEELSLQDITMRKAFRSSTIQDQQLFDRKTLPIPLQETYDVCEQPPPLNILTPYRDDGKEGLKFYTNPSYFFDLWKEKMLQDTEDKRKEKRKQKQKNLDRPHEPEKVPRAPHDRRREWQKLAQGPELAEDDADLLHKHIEVANGPASHYETRPQTYVDHMDGSYSLSALPFSQMSELLTRAEERVLVRPHEPPPPPPMHGAGDAKPTPTCISSATGLIENRPQSPAAGRTPVFVSPTPPPPPPPLPSALSTSSLRASMTSTPPPPVPPPPPPPATALQAPAVPPPPAPLQIAPGVLHPAPPPIAPPLVQPSPPVARAAPVCETVPVHPLPQGEVQGLPPPPPPPPLPPPGIRPSSPVAVAALAHPPSGLHPAPSTAPGPHAPLMPPSPPSQVLPASEPKRHPSTLPVISDARSVLLEAIRKGIQLRKVEEQREQEAKHERIENDVATILSRRIAVEYSDSEDDSEFDEVDWLE
How did the binding [1] turn out when B1 was run?
Its binding is “binds”.

B2: pro-apoptotic protein BADS (BCL2-antagonist of cell death), human (protein, UniProt Q92934 1-168)
chain: MFQIPEFEPSEQEDSSSAERGLGPSPAGDGPSGSGKHHRQAPGLLWDASHQQEQPTSSSHHGGAGAVEIRSRHSSYPAGTEDDEGMGEEPSPFRGRSRSAPPNLWAAQRYGRELRRMSDEFVDSFKKGLPRPKSAGTATQMRQSSSWTRVFQSWWDRNLGRGSSAPSQ
How did the binding [2] turn out when B2 was run?
The binding was “binds”.
